PubChem BioAssay AID1259405 | NCATS – 2018
The whole screen tested about 50,000 reagents; this is an unselected part. In the full data, about 4,000 (8%) were called active. 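Mouse siRNA library applied to hamster cells; one well for each siRNA.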 Entries without a mark were called inactive.

- Assay: 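Silenced genes that increase secreted GFP made by CHO cells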 (primary screen)
- Cells: Chinese hamster CHO-K1 ovary cells with stable secreted eGFP expression
- Knock-down reagent: single siRNA against mouse genes, 0.8 pmol siRNA per well (2 µl of 400 nM stock)
- Timing: 3 days
- Measured: 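Percent of the per-plate non-targeting control median for intracellular GFP per well by laser scanning cytometry and for cell viability by ATP luminescence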
- Direction: GFP, % of control: higher = more GFP per well, higher productivity; viability (ATP), % of control: higher = more viable cells (more ATP)
- Active means: 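Called active when intracellular GFP, relative to negative control, is at or above 120%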

no.	gene	PubChem SID	GFP, % of control	viability (ATP), % of control
1	Mtcl3	SID363552159	68.1	88.9
2	Mtcl3	SID363585295	47.6	59.9
3	Mtcl3	SID363585646	97.1	142
4	Dipk1a	SID363543975	32.8	58.3
5	Dipk1a	SID363551711	63.1	55.8
6	Dipk1a	SID363559316	66.9	90.3
7	Aar2	SID363540796	106	122
8	Aar2	SID363543247	108	43.2
9	Aar2	SID363552740	112	69.7
10	Sulf1	SID363569451	90.6	79.8
11	Sulf1	SID363577195	131 (active)	82.2
12	Sulf1	SID363578603	94.8	78.4
13	Ndufb8	SID363572901	60.7	78.4
14	Ndufb8	SID363577477	65.7	71.5
15	Ndufb8	SID363580997	51	44.7
16	Tgm4	SID363570594	78.8	84
17	Tgm4	SID363579394	65.7	165
18	Tgm4	SID363583266	70.5	154
19	Smarcd3	SID363546134	46	55.6
20	Smarcd3	SID363549647	71.3	63.1
21	Smarcd3	SID363563453	42.8	54.4
22	3110009E18Rik	SID363543828	94	96.7
23	3110009E18Rik	SID363551564	196 (active)	120
24	3110009E18Rik	SID363559169	79.2	76.5
25	Gm6288	SID363540472	54	69.9
26	Gm6288	SID363542224	53.3	64
27	Gm6288	SID363567140	163 (active)	72.7
28	Shq1	SID363543796	91.6	73.7
29	Shq1	SID363551532	86.4	55.7
30	Shq1	SID363559137	78	62.1
31	Or5ak23	SID363544793	94.1	64.9
32	Or5ak23	SID363551121	90.4	93.4
33	Or5ak23	SID363557670	51.9	36.7
34	Rcn2	SID363582425	109	129
35	Rcn2	SID363584185	100	67.5
36	Kir3dl1	SID363544044	62	46.3
37	Kir3dl1	SID363550372	112	39.4
38	Kir3dl1	SID363556921	123 (active)	55.4
39	Grk5	SID363570791	133 (active)	105
40	Ppm1g	SID363547568	132 (active)	77.5
41	Ppm1g	SID363558337	82.6	51.6
42	Ppm1g	SID363560095	44.4	43.2
43	Vmn1r40	SID363556630	59.4	78.6
44	Vmn1r40	SID363563534	30.5	34.8
45	Vmn1r40	SID363587080	59.7	73.8
46	Gm4736	SID363562099	78.1	37.6
47	Gm4736	SID363567237	87.8	50.2
48	Gm4736	SID363584594	68.5	39.9
49	Cept1	SID363545393	34.9	26.9
50	Cept1	SID363548906	75.1	96.4
51	Cept1	SID363562712	52.1	44.1
52	Tbx4	SID363573617	116	114
53	Tbx4	SID363581361	87.7	66.8
54	Tbx4	SID363583825	68.3	76.6
55	Cobl	SID363550239	81.9	82.8
56	Cobl	SID363564748	65.9	83.5
57	Cobl	SID363588293	59.2	90.7
58	Adamts5	SID363574432	68.4	65
59	Adamts5	SID363575488	42.9	21.2
60	Adamts5	SID363580064	86.2	54.4
61	Luzp1	SID363540331	54.3	66.9
62	Luzp1	SID363542083	99	76.2
63	Luzp1	SID363566999	96.8	73.7
64	Krtap26-1	SID363543457	62.9	95.8
65	Krtap26-1	SID363552950	49.8	56.2
66	Krtap26-1	SID363558798	75	65
67	Col6a2	SID363582511	84	117
68	Col6a2	SID363584271	84.5	91.8
69	Dna2	SID363569899	89.1	95.6
70	Dna2	SID363576939	88.2	102
71	Dna2	SID363578347	110	66.5
72	Vma22	SID363543428	99.4	98.5
73	Vma22	SID363552921	64.8	52.9
74	Vma22	SID363558769	16.6	34.1
75	Mtrf1	SID363553891	118	73.8
76	Mtrf1	SID363561848	91.8	67.8
77	Mtrf1	SID363565586	82.1	77.8
78	Srsf10	SID363545932	68.1	56.8
79	Srsf10	SID363549445	71.2	68.9
80	Srsf10	SID363563251	125 (active)	75.4
81	Ndufaf1	SID363562226	57	70.9
82	Ndufaf1	SID363567364	59.1	64.8
83	Ndufaf1	SID363584721	101	57.1
84	Kcnmb1	SID363574929	106	99.7
85	Kcnmb1	SID363575985	80.6	92.9
86	Kcnmb1	SID363580561	97.6	72.9
